# Test results published in PubChem BioAssay AID743255 (National Center for Advancing Translational Sciences (NCATS), 2014).
# The chains behind the UniProt entries cited, without tags or fusion partners. Where a name states a change or a piece, a line headed by the entry shows the natural chain unless it says otherwise.
# UniProt O94782: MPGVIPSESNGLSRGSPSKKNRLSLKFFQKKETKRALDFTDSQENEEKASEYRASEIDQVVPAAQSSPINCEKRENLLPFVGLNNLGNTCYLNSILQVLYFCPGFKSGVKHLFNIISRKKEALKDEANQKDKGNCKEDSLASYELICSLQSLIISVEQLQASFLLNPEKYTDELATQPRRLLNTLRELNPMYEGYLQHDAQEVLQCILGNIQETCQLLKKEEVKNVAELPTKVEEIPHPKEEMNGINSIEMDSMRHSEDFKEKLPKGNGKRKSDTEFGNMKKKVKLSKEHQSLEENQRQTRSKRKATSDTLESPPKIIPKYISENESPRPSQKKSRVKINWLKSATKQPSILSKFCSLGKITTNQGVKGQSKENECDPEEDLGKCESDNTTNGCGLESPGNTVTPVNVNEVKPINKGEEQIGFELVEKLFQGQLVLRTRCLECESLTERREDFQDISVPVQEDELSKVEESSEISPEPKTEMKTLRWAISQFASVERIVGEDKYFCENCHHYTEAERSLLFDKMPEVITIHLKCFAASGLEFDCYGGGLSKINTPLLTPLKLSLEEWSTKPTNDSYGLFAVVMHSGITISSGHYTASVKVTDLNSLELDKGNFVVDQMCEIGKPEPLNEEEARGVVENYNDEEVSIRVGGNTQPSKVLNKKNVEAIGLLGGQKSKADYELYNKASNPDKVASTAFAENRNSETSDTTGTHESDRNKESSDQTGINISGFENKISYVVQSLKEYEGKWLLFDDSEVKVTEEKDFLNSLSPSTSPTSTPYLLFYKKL
# About 910 (0.23%) of roughly 390,000 compounds were called active. Inconclusive results, whose numbers are uncertain, are shown with a selection of clear calls. Calls follow the shape of the dose curve; as a rule, active = well fitted inhibition curve with a large enough effect; inconclusive = small, poorly fitted or top-dose-only effect; inactive = no such curve, though single readings can be large or run the other way. Where the call is inconclusive, the potency comes from a doubtful curve fit.
# Target: Ubiquitin carboxyl-terminal hydrolase 1 (Homo sapiens) (UniProt O94782)
# Assay: Inhibitors of USP1/UAF1: Primary Screen; also: nearly all actives have a fitted effect of over 60% in size
# Conditions: recombinant USP1/UAF1, Ub-Rhodamine cleavage fluorescence; activity change, negative = inhibition: at 57.1 µM (top of the series)
# Method in brief: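 Step one: compound is pinned into 1nM USP1/UAF1 in HEPES pH 7.8 buffer with TCEP. Step two: 15 min room-temperature incubation. Step three: Ub-Rho (150nM final) starts cleavage, tracked by fluorescence over six one-minute reads.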
# % is scaled to controls: 0 for no effect and ±100 for the full control effect; potency is read from the fitted curve at half-maximal effect.
Compound,Potency,"activity change, negative = inhibition"
CC(C)Oc1ccc(S(=O)(=O)N2CCOCC2)cc1NC(=O)CC1CC2CCC1C2 (stereo not given),"inconclusive: 0.126 µM [inhibitor, full curve, poor fit]",–
Cc1cccc(C)c1Nc1c(-c2ccc(Cl)s2)nc2ncccn12,"inconclusive: 39.8 µM [inhibitor, single point]",–
O=C(O)C(NC(=O)c1ccccc1)=C(Cl)Cl,inactive,–
COc1ccc2oc(C(=O)Nc3ccc(S(=O)(=O)N(C)C4CCN(C)CC4)cc3)c(C)c2c1,inactive,–
CC(C)C(=O)OC1=CN(Cc2ccccc2)S(=O)(=O)c2ccccc21,"inconclusive: 7.08 µM [inhibitor, partial curve, poor fit]",–
Cc1[nH]c2ccccc2c1C(=O)C(=O)NC1CC(=O)N(c2cccc(F)c2)C1 (stereo not given),"inconclusive: 0.794 µM [inhibitor, full curve]",–
CCC(C)Sc1ccc(-c2nc3cnccn3c2NC2CCCCC2)cc1 (stereo not given),inactive,–
Cc1cc(NC(=O)Cc2cccs2)no1,"inconclusive: 35.5 µM [inhibitor, partial curve, poor fit]",–
CN1C(=O)/C(=C2/C=Cc3ccccc3N2CCCS(=O)(=O)O)SC1=S,"inconclusive: 44.7 µM [inhibitor, partial curve, poor fit]",–
O=C(C(=O)N(Cc1ccccc1)Cc1ccccc1)c1c(-c2ccccc2)[nH]c2ccccc12,"inconclusive: 17.8 µM [inhibitor, partial curve, poor fit]",–
CCn1c(=O)c2cc(C(=O)NCCC(C)C)sc2c2ccccc21,–,inconclusive: -29.1% [inhibitor]
COc1cc(-c2nc3ccc(C)cn3c2Nc2ccc(Cl)cc2)ccc1O,"inconclusive: 0.158 µM [inhibitor, full curve, poor fit]",–
CCCCCCSc1ccc([C@@H]2[C@@H]3C(=O)N(CC)C(=O)[C@@H]3[C@]3(C(=O)OC)CCCCN23)cc1OC,"inconclusive: 35.5 µM [inhibitor, partial curve]",–
CCOC(=O)N1CCN(S(=O)(=O)c2ccc(F)c(C(=O)Nc3ccc(C)c(Cl)c3)c2)CC1,"inconclusive: 31.6 µM [inhibitor, partial curve, poor fit]",–
Cc1cc(C)c(C(=O)Nc2ccc(S(=O)(=O)Nc3onc(C)c3C)cc2)c(C)c1,"inconclusive: 0.794 µM [inhibitor, full curve]",–
CCOC(=O)C(Cc1c[nH]c2ccccc12)NC(=O)COc1ccc(Cl)cc1 (stereo not given),"inconclusive: 7.94 µM [inhibitor, full curve, poor fit]",–
Cc1c(Cl)cccc1NC(=O)CN1C(=O)CCn2nc(-c3cccn3C)cc21,"inconclusive: 89.1 µM [inhibitor, partial curve, poor fit]",–
O=C(c1ccccc1)C(O)c1ccccc1 (stereo not given),"inconclusive: 35.5 µM [inhibitor, single point]",–
COc1ccccc1NC(=O)CCn1c(=O)oc2cc(Cl)ccc21,"inconclusive: 39.8 µM [inhibitor, partial curve, poor fit]",–
CCOc1cc(-c2nc(-c3ccc(-c4ccc(OC)cc4)nc3OC)no2)cc(OCC)c1OCC,"inconclusive: 3.98 µM [inhibitor, single point]",–
COc1cccc(CC2(CO)CCCN(Cc3sc(N4CCCC4)nc3Cl)C2)c1 (stereo not given),"inconclusive: 2.82 µM [inhibitor, full curve, poor fit]",–
CC(C)CC(C(=O)NC1CCCC1)N(Cc1ccc2c(c1)OCO2)C(=O)c1snc(C(N)=O)c1N (stereo not given),inactive,–

Compound,Potency,"activity change, negative = inhibition"
CC(=O)c1ccc(N2CCN(C3C(=O)c4ccccc4N3C(C)=O)CC2)cc1 (stereo not given),"inconclusive: 0.251 µM [inhibitor, full curve, poor fit]",–
COc1ccc(-c2cc(C(=O)NCCc3ccccc3)c3cc(C(C)C)ccc3n2)cc1,"inconclusive: 11.2 µM [inhibitor, partial curve]",–
Cc1ccccc1OCc1nc(-c2ccc(Br)o2)no1,"inconclusive: 44.7 µM [inhibitor, partial curve]",–
CCN1C(=S)SC(=O)C1=C1C=C(C)N(Cc2ccco2)C(C)=C1,"inconclusive: 31.6 µM [inhibitor, partial curve]",–
CC(NC(=O)Cn1c(-c2cccs2)cc2cc(F)ccc21)c1ccccc1 (stereo not given),inactive,–
CC1=C(C(=O)OCc2ccc3c(c2)OCO3)C(c2ccc(O)c([N+](=O)[O-])c2)NC(=O)N1 (stereo not given),"inconclusive: 5.62 µM [inhibitor, single point]",–
Cn1c(=O)[nH]c(=O)c2c1nc(SCCN1CCCCC1)n2Cc1ccccc1,inactive,–
O=c1[nH]c(SCc2ccc(Br)cc2)nc2c1CCCC2,inactive,–
Cc1nn(-c2ccccc2)c(N2CCCC2)c1/C=N/NC(=S)Nc1cc(C(F)(F)F)ccc1Cl,"inconclusive: 12.6 µM [inhibitor, partial curve]",–
CCOC(=O)C1=C(C)N=c2s/c(=C\c3ccc(OCC(=O)O)cc3)c(=O)n2C1c1ccc(Cl)cc1 (stereo not given),"inconclusive: 35.5 µM [inhibitor, partial curve, poor fit]",–
COc1cccc(C2=CC(c3ccc(N(C)C)cc3)n3nnnc3N2)c1 (stereo not given),"inconclusive: 35.5 µM [inhibitor, partial curve]",–
CCOC(=O)CC(=O)CSc1nc(-c2cccnc2)cc(C)c1C#N,inactive,–
Cc1nc2c3ccccc3nc(NNC(=O)CCC(=O)NCCN3CCN(c4ccccc4F)CC3)n2n1,inactive,–
O=C(CCc1ccc(O)cc1)c1c(O)cc(O)cc1O,"inconclusive: 28.2 µM [inhibitor, partial curve, poor fit]",–
COc1ccc2nc(NC(=O)c3ccc(S(=O)(=O)N4CCCC(C)C4)cc3)sc2c1 (stereo not given),inactive,–
CC1=C(C(=O)Nc2ccccc2C)C(c2ccccn2)n2nc(SCc3ccccc3F)nc2N1 (stereo not given),inactive,–
O=c1[nH]c(SCc2ccc(F)cc2)nc2c1cnn2-c1ccc(F)cc1,"inconclusive: 2.51 µM [inhibitor, full curve, poor fit]",–
O=C(c1ccco1)N1CCN(S(=O)(=O)c2cccs2)CC1,"inconclusive: 0.891 µM [inhibitor, partial curve]",–
COC(=O)c1cc2ccsc2n1CC(=O)Nc1ccc(N(C)C)cc1,"inconclusive: 0.355 µM [inhibitor, full curve]",–
C/C(=N\O)c1ccc(Cl)cc1Cl,inactive,–
Cc1noc2ncnc(NCc3cccc(Cl)c3)c12,inactive,–
COc1ccc(-c2coc3c(C)c4oc(=O)c(CCC(=O)O)c(C)c4cc23)cc1,"inconclusive: 44.7 µM [inhibitor, partial curve, poor fit]",–

# Single entries from the results shown:
# Under Potency, Cc1cc(C)c(C(=O)Nc2ccc(S(=O)(=O)Nc3onc(C)c3C)cc2)c(C)c1 has inconclusive: 0.794 µM [inhibitor, full curve]
# Under Potency, Cn1c(=O)[nH]c(=O)c2c1nc(SCCN1CCCCC1)n2Cc1ccccc1 has inactive
# Under Potency, Cc1ccccc1OCc1nc(-c2ccc(Br)o2)no1 has inconclusive: 44.7 µM [inhibitor, partial curve]
# Under Potency, CCOC(=O)C1=C(C)N=c2s/c(=C\c3ccc(OCC(=O)O)cc3)c(=O)n2C1c1ccc(Cl)cc1 (stereo not given) has inconclusive: 35.5 µM [inhibitor, partial curve, poor fit]

# Continued.

Compound,Potency,"activity change, negative = inhibition"
Cc1ccc(/C=N/Nc2nc3ccccc3s2)o1,inactive,–
CC(=O)c1c(O)cc(O)cc1CC(=O)O,inactive,–
Cc1c(C(=O)NCc2ccccc2Cl)sc2nc3n(c(=O)c12)CCC3,"inconclusive: 14.1 µM [inhibitor, partial curve, poor fit]",–
c1cncc(-c2nc(NCC3CCCO3)c3ccccc3n2)c1 (stereo not given),"inconclusive: 28.2 µM [inhibitor, single point]",–
Cc1ccc(S(=O)(=O)c2c(N)n(CCC(C)C)c3nc4ccccc4nc23)cc1,"inconclusive: 35.5 µM [inhibitor, partial curve, poor fit]",–
CCOC(=O)Cc1csc(-n2sc3ccccc3c2=O)n1,"inconclusive: 31.6 µM [inhibitor, partial curve]",–
O=C(/C=C/c1ccc([N+](=O)[O-])s1)N1CCCC1,"inconclusive: 5.01 µM [inhibitor, full curve]",–
COc1ccc(C=C2NC(=S)NC2=O)cc1,"inconclusive: 2 µM [inhibitor, partial curve]",–
COc1ccc(C2CC(c3cccc([N+](=O)[O-])c3)=NN2/C(C)=C/C(C)=O)cc1 (stereo not given),inactive,–
Cc1nc2c(O)cccc2cc1CO,inactive,–
COc1ccc2nc(N3CCN(C(=O)c4ccco4)CC3)sc2c1,"inconclusive: 0.251 µM [inhibitor, partial curve, poor fit]",–
Cc1nc2c(nc1C)C(=O)c1ccccc1C2=O,"inconclusive: 35.5 µM [inhibitor, partial curve]",–
CC/C(=N/NC(=O)CNc1ccc(Cl)cc1C)c1ccccc1,"inconclusive: 44.7 µM [inhibitor, partial curve, poor fit]",–
COc1cc(C=O)ccc1Oc1nc(Nc2ccc(F)cc2F)nc(N2CCOCC2)n1,"inconclusive: 31.6 µM [inhibitor, partial curve]",–
CSc1cccc(NC(=O)Cn2nnc(C(=O)NCCc3ccccc3)c2N)c1,"inconclusive: 79.4 µM [inhibitor, partial curve, poor fit]",–
Cc1cc(O)c(S(=O)(=O)c2ccccc2)c(C)c1NS(=O)(=O)c1ccccc1,"inconclusive: 14.1 µM [inhibitor, partial curve]",–
COc1ccc2c3n(nc2c1)CCN=C3c1cc(Cl)c(N)c(Cl)c1,"inconclusive: 44.7 µM [inhibitor, partial curve, poor fit]",–
O=C(Nc1nnc(SCc2ccc(F)cc2)s1)c1ccccn1,inactive,–
COc1ccc(NC(=O)c2ccco2)cc1NC(=O)COc1ccc(C)cc1C,"inconclusive: 44.7 µM [inhibitor, partial curve, poor fit]",–
CC(=O)c1ccc(N2CCN(C(=O)Nc3cccc(F)c3)CC2)cc1,"inconclusive: 0.631 µM [inhibitor, full curve, poor fit]",–
CC(C)CC(=O)Nc1c(C(=O)N2CCN(c3ccccc3F)CC2)oc2ccccc12,"inconclusive: 25.1 µM [inhibitor, partial curve]",–
